# Data: US9376406B2, “uPAR-uPA interaction inhibitors and methods for treating cancer” (Indiana University Research and Technology Corporation, priority 2011, dated 2016)
# Sequences of proteins named here, by UniProt entry; tags and fusion partners are left off. Residues count along the entry.
# UniProt Q03405, 23-299: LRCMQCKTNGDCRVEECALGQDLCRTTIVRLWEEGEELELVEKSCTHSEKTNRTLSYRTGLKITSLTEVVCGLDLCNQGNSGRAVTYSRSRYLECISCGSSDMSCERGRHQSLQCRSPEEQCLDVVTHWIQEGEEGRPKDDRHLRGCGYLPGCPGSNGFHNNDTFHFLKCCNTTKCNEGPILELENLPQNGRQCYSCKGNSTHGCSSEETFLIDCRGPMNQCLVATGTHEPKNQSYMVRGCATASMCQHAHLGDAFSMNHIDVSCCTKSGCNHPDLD
# For at least one compound, name, drawing or mass did not settle the structure. Where a SMILES comes first, the peptide text is derived from it.
# Molecular target: T1, uPAR (Homo sapiens, UniProt Q03405)
# T1 construct: uPAR comprising amino acids 1-277 was expressed in Drosophila S2 cells; made in house; host or cells: Drosophila S2 cells
# Assay: Fluorescence polarization, direct binding to uPAR
# Conditions: direct binding to uPAR by fluorescence polarization
# Procedure: Fluorescence polarization in the presence and absence of protein and were measured using identical conditions as described above.
# The mP was evaluated in the a presence and absence of competing 10 μM GFD.
compound,measurement,value
"CC[C@H](C)[C@H](NC(=O)[C@H](CC(N)=O)NC(=O)[C@H](CO)NC(=O)[C@H](Cc1ccccc1)NC(=O)[C@H](Cc1ccc(O)cc1)NC(=O)[C@H](CCCCN)NC(=O)[C@H](CC(N)=O)NC(=O)[C@H](CO)NC(=O)[C@@H](NC(=O)[C@H](CS)NC(=O)[C@@H](NC(=O)CNC(=O)CNC(=O)[C@H](CC(N)=O)NC(=O)[C@H](CC(C)C)NC(=O)[C@H](CS)NC(=O)c1ccc2c(c1)C(=O)OC21c2ccc(O)cc2Oc2cc(O)ccc21)[C@@H](C)O)C(C)C)C(=O)N[C@@H](Cc1c[nH]cn1)C(=O)N[C@@H](Cc1c[nH]c2ccccc12)C(=O)N[C@@H](CS)C(=O)N[C@@H](CC(N)=O)C(=O)O [GFD-FAM, reference compound] (HELM PEPTIDE1{[O=C1OC2(c3ccc(O)cc3Oc3cc(O)ccc32)c2ccc(C(=O)[*:2])cc21].C.L.N.G.G.T.C.V.S.N.K.Y.F.S.N.I.H.W.C.N}$$$$V2.0; N-terminus and C-terminus assumed)",Kd,120 nM
